Results published in the supplement of paper PMC8728848.
The other results are listed elsewhere or left out.

What was measured:
Test in all cases: glycan array binding signal (z-score within array); higher = stronger binding
Conditions in all cases: glycan notation: IUPAC condensed, linker removed
Fuc(a1-2)Gal = biological target: Fuc(a1-2)Gal
Procedure, shortened: (§1)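 The binding signal is a Z-score computed within each array and averaged over linkers. Arrays of the same protein sequence at different concentrations or buffers were also averaged together. Data originate from 3228 arrays in the Consortium for Functional Glycomics database, kept only where the protein sequence was available.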

Fuc(a1-2)Gal(b1-3)GalNAc = biological target: Fuc(a1-2)Gal(b1-3)GalNAc
Procedure, shortened: as §1

[1] = biological target: Fuc(a1-2)Gal(b1-3)GalNAc(a1-3)[Fuc(a1-2)]Gal(b1-4)Glc
Procedure, shortened: as §1

[2] = biological target: Fuc(a1-2)Gal(b1-3)GalNAc(a1-3)[Fuc(a1-2)]Gal(b1-4)GlcNAc
Procedure, shortened: as §1

[3] = biological target: Fuc(a1-2)Gal(b1-3)GalNAc(b1-3)Gal
Procedure, shortened: as §1

[4] = biological target: Fuc(a1-2)Gal(b1-3)GalNAc(b1-3)Gal(a1-4)Gal(b1-4)Glc
Procedure, shortened: as §1

[5] = biological target: Fuc(a1-2)Gal(b1-3)GalNAc(b1-4)[Neu5Ac(a2-3)]Gal(b1-4)Glc
Procedure, shortened: as §1

Fuc(a1-2)Gal(b1-3)GlcNAc = biological target: Fuc(a1-2)Gal(b1-3)GlcNAc
Procedure, shortened: as §1

[6] = biological target: Fuc(a1-2)Gal(b1-3)GlcNAc(b1-2)Man(a1-3)[Fuc(a1-2)Gal(b1-3)GlcNAc(b1-2)Man(a1-6)]Man(b1-4)GlcNAc(b1-4)GlcNAc
Procedure, shortened: as §1

[7] = biological target: Fuc(a1-2)Gal(b1-3)GlcNAc(b1-2)Man(a1-3)[Fuc(a1-2)Gal(b1-3)GlcNAc(b1-2)Man(a1-6)]Man(b1-4)GlcNAc(b1-4)[Fuc(a1-6)]GlcNAc
Procedure, shortened: as §1

[8] = biological target: Fuc(a1-2)Gal(b1-3)GlcNAc(b1-3)Gal(b1-4)Glc
Procedure, shortened: as §1

[9] = biological target: Fuc(a1-2)Gal(b1-3)GlcNAc(b1-3)GalNAc
Procedure, shortened: as §1

[10] = biological target: Fuc(a1-2)Gal(b1-3)GlcNAc(b1-3)[Fuc(a1-2)Gal(b1-3)GlcNAc(b1-6)]GalNAc
Procedure, shortened: as §1

[11] = biological target: Fuc(a1-2)Gal(b1-3)GlcNAc(b1-3)[Gal(b1-4)GlcNAc(b1-6)]Gal(b1-4)Glc
Procedure, shortened: as §1

[12] = biological target: Fuc(a1-2)Gal(b1-3)GlcNAc(b1-3)[Neu5Ac(a2-6)Gal(b1-4)GlcNAc(b1-6)]Gal(b1-4)Glc
Procedure, shortened: as §1

[13] = biological target: Fuc(a1-2)Gal(b1-3)GlcNAc6S
Procedure, shortened: as §1

[14] = biological target: Fuc(a1-2)Gal(b1-3)[Fuc(a1-4)]GlcNAc
Procedure, shortened: as §1

[15] = biological target: Fuc(a1-2)Gal(b1-3)[Fuc(a1-4)]GlcNAc(b1-2)Man(a1-3)[Fuc(a1-2)Gal(b1-3)[Fuc(a1-4)]GlcNAc(b1-2)Man(a1-3)]Man(b1-4)GlcNAc(b1-4)GlcNAc
Procedure, shortened: as §1

[16] = biological target: Fuc(a1-2)Gal(b1-3)[Fuc(a1-4)]GlcNAc(b1-2)Man(a1-3)[Fuc(a1-2)Gal(b1-3)[Fuc(a1-4)]GlcNAc(b1-2)Man(a1-6)]Man(b1-4)GlcNAc(b1-4)[Fuc(a1-6)]GlcNAc(b1-4)[Fuc(a1-6)]GlcNAc
Procedure, shortened: as §1

[17] = biological target: Fuc(a1-2)Gal(b1-3)[Fuc(a1-4)]GlcNAc(b1-3)[Fuc(a1-3)[Gal(b1-4)]GlcNAc(b1-6)]Gal(b1-4)Glc
Procedure, shortened: as §1

[18] = biological target: Fuc(a1-2)Gal(b1-3)[Fuc(a1-4)]GlcNAc(b1-3)[Gal(b1-4)GlcNAc(b1-6)]Gal(b1-4)Glc
Procedure, shortened: as §1

Fuc(a1-2)Gal(b1-4)Glc = biological target: Fuc(a1-2)Gal(b1-4)Glc
Procedure, shortened: as §1

Fuc(a1-2)Gal(b1-4)Glc6S = biological target: Fuc(a1-2)Gal(b1-4)Glc6S
Procedure, shortened: as §1

Fuc(a1-2)Gal(b1-4)GlcNAc = biological target: Fuc(a1-2)Gal(b1-4)GlcNAc
Procedure, shortened: as §1

[19] = biological target: Fuc(a1-2)Gal(b1-4)GlcNAc(b1-2)Man
Procedure, shortened: as §1

[20] = biological target: Fuc(a1-2)Gal(b1-4)GlcNAc(b1-2)Man(a1-3)[Fuc(a1-2)Gal(b1-4)GlcNAc(b1-2)Man(a1-6)]Man(b1-4)GlcNAc(b1-4)GlcNAc
Procedure, shortened: as §1

[21] = biological target: Fuc(a1-2)Gal(b1-4)GlcNAc(b1-2)Man(a1-3)[Fuc(a1-2)Gal(b1-4)GlcNAc(b1-2)Man(a1-6)]Man(b1-4)GlcNAc(b1-4)[Fuc(a1-6)]GlcNAc
Procedure, shortened: as §1

[22] = biological target: Fuc(a1-2)Gal(b1-4)GlcNAc(b1-2)[Fuc(a1-2)Gal(b1-4)GlcNAc(b1-4)]Man(a1-3)[Fuc(a1-2)Gal(b1-4)GlcNAc(b1-2)Man(a1-6)]Man(b1-4)GlcNAc(b1-4)GlcNAc
Procedure, shortened: as §1

[23] = biological target: Fuc(a1-2)Gal(b1-4)GlcNAc(b1-3)Gal(b1-4)GlcNAc
Procedure, shortened: as §1

[24] = biological target: Fuc(a1-2)Gal(b1-4)GlcNAc(b1-3)Gal(b1-4)GlcNAc(b1-2)Man(a1-3)[Fuc(a1-2)Gal(b1-4)GlcNAc(b1-3)Gal(b1-4)GlcNAc(b1-2)Man(a1-6)]Man(b1-4)GlcNAc(b1-4)GlcNAc
Procedure, shortened: as §1

[25] = biological target: Fuc(a1-2)Gal(b1-4)GlcNAc(b1-3)Gal(b1-4)GlcNAc(b1-3)Gal(b1-4)GlcNAc
Procedure, shortened: as §1

[26] = biological target: Fuc(a1-2)Gal(b1-4)GlcNAc(b1-3)GalNAc
Procedure, shortened: as §1

[27] = biological target: Fuc(a1-2)Gal(b1-4)GlcNAc(b1-3)[Fuc(a1-2)Gal(b1-4)GlcNAc(b1-6)]GalNAc
Procedure, shortened: as §1

[28] = biological target: Fuc(a1-2)Gal(b1-4)GlcNAc(b1-3)[Fuc(a1-3)[Gal(b1-4)]GlcNAc(b1-6)]Gal(b1-4)Glc
Procedure, shortened: as §1

[29] = biological target: Fuc(a1-2)Gal(b1-4)GlcNAc(b1-6)GalNAc
Procedure, shortened: as §1

[30] = biological target: Fuc(a1-2)Gal(b1-4)GlcNAc6S
Procedure, shortened: as §1

[31] = biological target: Fuc(a1-2)Gal(b1-4)[Fuc(a1-3)]GlcNAc
Procedure, shortened: as §1

[32] = biological target: Fuc(a1-2)Gal(b1-4)[Fuc(a1-3)]GlcNAc(b1-2)Man(a1-3)[Fuc(a1-2)Gal(b1-4)[Fuc(a1-3)]GlcNAc(b1-2)Man(a1-6)]Man(b1-4)GlcNAc(b1-4)[Fuc(a1-6)]GlcNAc
Procedure, shortened: as §1

[33] = biological target: Fuc(a1-2)Gal(b1-4)[Fuc(a1-3)]GlcNAc(b1-2)[Fuc(a1-2)Gal(b1-4)[Fuc(a1-3)]GlcNAc(b1-4)]Man(a1-3)[Fuc(a1-2)Gal(b1-4)[Fuc(a1-3)]GlcNAc(b1-2)Man(a1-6)]Man(b1-4)GlcNAc(b1-4)GlcNAc
Procedure, shortened: as §1

[34] = biological target: Fuc(a1-2)Gal(b1-4)[Fuc(a1-3)]GlcNAc(b1-3)Gal(b1-4)[Fuc(a1-3)]GlcNAc
Procedure, shortened: as §1

[35] = biological target: Fuc(a1-2)Gal(b1-4)[Fuc(a1-3)]GlcNAc(b1-3)Gal(b1-4)[Fuc(a1-3)]GlcNAc(b1-3)Gal(b1-4)[Fuc(a1-3)]GlcNAc
Procedure, shortened: as §1

[36] = biological target: Fuc(a1-2)Gal(b1-4)[Fuc(a1-3)]GlcNAc(b1-3)GalNAc
Procedure, shortened: as §1

[37] = biological target: Fuc(a1-2)Gal(b1-4)[Fuc(a1-3)]GlcNAc(b1-3)[Neu5Ac(a2-6)Gal(b1-4)GlcNAc(b1-6)]Gal(b1-4)Glc
Procedure, shortened: as §1

[38] = biological target: Fuc(a1-2)Gal3S(b1-4)GlcNAc
Procedure, shortened: as §1

[39] = biological target: Fuc(a1-2)Gal6S(b1-3)GlcNAc
Procedure, shortened: as §1

B1: PX9937I-bfa-538-26-538 (Bacteroides fragilis) (protein)
chain: DKLDLSPIDYYGSGSYWKTEAQATAYIDGIHKHLRDAAWQHTITFGELRGGRFITGASSDGMGVSNGDIILQNFDETHTGVSKFGDLFGRITNLNLFIARVTDATYLSDEMKNFYLGEVYGLRAFYYFDLYRIYGGVPLRLTADVVEGVIDPNKLYMARSTPKEVMTQIKSDLNKSMEYFGNMNDFDPYKRGKKVYWSKAATECLMGEVYLWTSKVTTGDDVANPADLTIAKTHLESVLNNYNLKMLDDFSQVFNAKNKANDEIIFAIRFLEGEATNSNGTFTYNVGTGSTKNRYQANGEVFGDALDIQNTGNQTYEYNKAVYQNFDDADTRKEATFIASYNKDGKTGELSLYGTHVRKNIGYVNAQGARVYCGDYIFYRLPWVYLTLAEIANMEGDNAAVAKYINLVRKRAYGNAWDETLYAYPETADFTTNELAILHEKDKEFIQEGQRWWDLRRMTLTKGGTPLVFCKEGSLLGDAPILNKSTEAHKLLWPIEKTMLNKDPALEQTPGYK
glycan array binding signal (z-score) (Fuc(a1-2)Gal): -0.258 | glycan array binding signal (z-score) (Fuc(a1-2)Gal(b1-3)GalNAc): 0.13 | glycan array binding signal (z-score) [1]: -0.169 | glycan array binding signal (z-score) [2]: 0.914 | glycan array binding signal (z-score) [3]: -1.04 | glycan array binding signal (z-score) [4]: -0.803 | glycan array binding signal (z-score) [5]: -0.124 | glycan array binding signal (z-score) (Fuc(a1-2)Gal(b1-3)GlcNAc): 0.304 | glycan array binding signal (z-score) [6]: 5.41 | glycan array binding signal (z-score) [7]: 0.965 | glycan array binding signal (z-score) [8]: -0.607 | glycan array binding signal (z-score) [9]: -0.862 | glycan array binding signal (z-score) [10]: -0.035 | glycan array binding signal (z-score) [11]: 0.065 | glycan array binding signal (z-score) [12]: -0.393 | glycan array binding signal (z-score) [13]: -0.192 | glycan array binding signal (z-score) [14]: 0.507 | glycan array binding signal (z-score) [15]: -0.186 | glycan array binding signal (z-score) [16]: 0.982 | glycan array binding signal (z-score) [17]: 0.306 | glycan array binding signal (z-score) [18]: 1.94 | glycan array binding signal (z-score) (Fuc(a1-2)Gal(b1-4)Glc): 1.04 | glycan array binding signal (z-score) (Fuc(a1-2)Gal(b1-4)Glc6S): 0.782 | glycan array binding signal (z-score) (Fuc(a1-2)Gal(b1-4)GlcNAc): 0.509 | glycan array binding signal (z-score) [19]: 0.093 | glycan array binding signal (z-score) [20]: 3.93 | glycan array binding signal (z-score) [21]: 1.57 | glycan array binding signal (z-score) [22]: 1.02 | glycan array binding signal (z-score) [23]: -0.914 | glycan array binding signal (z-score) [24]: -0.602 | glycan array binding signal (z-score) [25]: -0.532 | glycan array binding signal (z-score) [26]: -0.175 | glycan array binding signal (z-score) [27]: -0.761 | glycan array binding signal (z-score) [28]: -0.397 | glycan array binding signal (z-score) [29]: -0.32 | glycan array binding signal (z-score) [30]: 0.645 | glycan array binding signal (z-score) [31]: -0.821 | glycan array binding signal (z-score) [32]: -0.346 | glycan array binding signal (z-score) [33]: -0.408 | glycan array binding signal (z-score) [34]: 0.375 | glycan array binding signal (z-score) [35]: -0.436 | glycan array binding signal (z-score) [36]: -0.322 | glycan array binding signal (z-score) [37]: -0.123 | glycan array binding signal (z-score) [38]: -0.854 | glycan array binding signal (z-score) [39]: -0.264
